Data from article PMC11832904.

Chains of the proteins cited; added tags and fusions are not shown. Lines headed by an entry give the natural chain unless they say otherwise; changes in a name come on top. A line that says so, or that is headed by a name, gives the form on record, which may keep a tag or linker.
UniProt Q9H6L5: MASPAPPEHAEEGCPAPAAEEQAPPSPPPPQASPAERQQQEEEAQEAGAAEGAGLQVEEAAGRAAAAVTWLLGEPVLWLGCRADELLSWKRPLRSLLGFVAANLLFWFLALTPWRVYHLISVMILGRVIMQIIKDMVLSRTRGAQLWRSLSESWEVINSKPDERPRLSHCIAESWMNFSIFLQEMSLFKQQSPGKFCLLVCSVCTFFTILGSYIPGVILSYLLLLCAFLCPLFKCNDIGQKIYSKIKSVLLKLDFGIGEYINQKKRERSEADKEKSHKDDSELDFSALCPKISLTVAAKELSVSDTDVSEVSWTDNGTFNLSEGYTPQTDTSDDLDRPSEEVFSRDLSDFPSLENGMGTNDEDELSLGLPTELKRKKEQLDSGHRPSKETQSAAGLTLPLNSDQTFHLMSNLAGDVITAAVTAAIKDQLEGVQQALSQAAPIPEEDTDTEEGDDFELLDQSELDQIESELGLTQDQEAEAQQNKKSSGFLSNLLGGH
V1-FAM134B2/V2-FAM134B2 (Q9H6L5-2, form named): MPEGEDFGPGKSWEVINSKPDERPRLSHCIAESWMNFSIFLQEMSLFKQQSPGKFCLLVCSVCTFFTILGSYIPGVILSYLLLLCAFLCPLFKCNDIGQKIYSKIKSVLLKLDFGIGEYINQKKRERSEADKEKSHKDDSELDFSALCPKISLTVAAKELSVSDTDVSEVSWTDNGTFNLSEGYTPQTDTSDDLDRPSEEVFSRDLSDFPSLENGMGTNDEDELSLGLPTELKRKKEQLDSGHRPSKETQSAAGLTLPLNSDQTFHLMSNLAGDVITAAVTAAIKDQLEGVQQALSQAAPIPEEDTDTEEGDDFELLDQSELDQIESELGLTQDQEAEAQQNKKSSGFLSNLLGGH

Columns and labels:
[1] = target: V1-FAM134B1/V2-FAM134B1 (human) (UniProt Q9H6L5); test: split reporter + affinity purification with mass spectrometry; BiCAP: V1- and V2-tagged FAM134B isoforms co-expressed in C2C12 myotubes (8 h doxycycline); reconstituted Venus precipitated with GFP-Trap beads (1 h, 4 °C; 150 mM NaCl, 50 mM Tris-HCl pH 7.5, 1% NP-40); on-bead digestion, LC-MS/MS
[2] = target: V1-FAM134B2/V2-FAM134B2 (human) (UniProt Q9H6L5); test: as above
[3] = target: T1, RFP-Fam134b1 (not stated (human or mouse cDNA cloned)) (UniProt Q8VE91); test: affinity purification with mass spectrometry; RFP-Fam134b1 or RFP-Fam134b2 precipitated with anti-RFP agarose (4 h, 4 °C) from lysates of differentiated C2C12 myotubes; IP-MS
T1 sequence: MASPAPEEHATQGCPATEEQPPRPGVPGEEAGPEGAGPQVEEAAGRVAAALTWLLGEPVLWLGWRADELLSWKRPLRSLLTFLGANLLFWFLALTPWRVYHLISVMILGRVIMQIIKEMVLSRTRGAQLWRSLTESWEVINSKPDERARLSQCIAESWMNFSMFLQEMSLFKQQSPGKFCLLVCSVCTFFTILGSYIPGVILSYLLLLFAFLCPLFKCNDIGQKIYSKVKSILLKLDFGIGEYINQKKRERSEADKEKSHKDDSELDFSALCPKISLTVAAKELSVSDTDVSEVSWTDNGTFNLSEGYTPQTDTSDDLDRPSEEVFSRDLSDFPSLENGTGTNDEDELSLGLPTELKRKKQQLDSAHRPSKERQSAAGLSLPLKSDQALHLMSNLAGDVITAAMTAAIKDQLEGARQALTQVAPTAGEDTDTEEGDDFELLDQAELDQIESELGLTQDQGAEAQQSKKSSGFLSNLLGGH

[4] = target: RFP-Fam134b2 (not stated (human or mouse cDNA cloned)); test: as above

## V1-FAM134B2/V2-FAM134B2 (from UniProt Q9H6L5-2 1-356)
[1]
  binding: binds
[2]
  binding: binds

## V1-FAM134B1/V2-FAM134B1 (from UniProt Q9H6L5 1-497)
[1]
  binding: binds

## endogenous Fam134b2 (mouse (endogenous in C2C12 myotubes))
[3]
  binding: binds

B1: endogenous Fam134b1 (protein, UniProt Q8VE91 1-480)
chain: MASPAPEEHATQGCPATEEQPPRPGVPGEEAGPEGAGPQVEEAAGRVAAALTWLLGEPVLWLGWRADELLSWKRPLRSLLTFLGANLLFWFLALTPWRVYHLISVMILGRVIMQIIKEMVLSRTRGAQLWRSLTESWEVINSKPDERARLSQCIAESWMNFSMFLQEMSLFKQQSPGKFCLLVCSVCTFFTILGSYIPGVILSYLLLLFAFLCPLFKCNDIGQKIYSKVKSILLKLDFGIGEYINQKKRERSEADKEKSHKDDSELDFSALCPKISLTVAAKELSVSDTDVSEVSWTDNGTFNLSEGYTPQTDTSDDLDRPSEEVFSRDLSDFPSLENGTGTNDEDELSLGLPTELKRKKQQLDSAHRPSKERQSAAGLSLPLKSDQALHLMSNLAGDVITAAMTAAIKDQLEGARQALTQVAPTAGEDTDTEEGDDFELLDQAELDQIESELGLTQDQGAEAQQSKKSSGFLSNLLGGH
[4]
  binding: no binding

These are yes or no findings as the source states them, for the method shown. Binding seen in cells or lysates may run through a third protein. A yes stands for co-enrichment or nearness to the bait. Other partners may have been found. For some assays here: A no says only that the protein was not detected with the bait.
